Measurements reported in patent US5622828.
The exact form of at least one protein or probe is not confirmed.

Target: T1, secretory phospholipase A2 (sPLA2) (Homo sapiens) (UniProt P14555)
T1 sequence: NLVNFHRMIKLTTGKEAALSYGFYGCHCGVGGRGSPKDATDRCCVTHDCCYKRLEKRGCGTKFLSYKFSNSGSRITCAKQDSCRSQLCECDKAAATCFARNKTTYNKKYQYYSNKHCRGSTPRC
Test: inhibition of the protein
Conditions: inhibits sPLA2 enzymatic activity, purified recombinant protein, protein details: supplied by Eli Lilly, dose not given here

[1] = 2'-NH2 all C and U, variant of NN19

GGGAAAAGAAGACCGGCCGGCGCCAUAGCCGAGAUCCGAGGUGUUGAACGAUAGACCAACCGAGAA [NN19.11]
functional effect of the aptamer [1]: active

GGGAAAAGAAGACCGGCCGGCGCCAUAGCCGAGAUCCGAGGUGUUGAACGAUCCGAGAA [NN19.14]
functional effect of the aptamer [1]: active

GGGAAAAGAAGACCGGCCGGCGCCAUAGCCGAGAUCCGAGGUGUUGAGACCAACCGAGAA [NN19.13]
functional effect of the aptamer [1]: active

GGGAAAAGAAGACCGGCCGGCGCCAUAGCCGAGAUCCGAGGUGUUGCCGAGAA [NN19.15]
functional effect of the aptamer (2'-NH2 all C and U, Example 7: dose-dependent inhibition of PLA2-induced contraction of guinea pig lung pleural strips, variant of NN19): active

GGGAGCUCAGAAUAAACGCUCAACGCCUCAUGCCAAUGCGGGAGGGUGGGUGGUUCGACAUGAGGCCCGGAUCCGGC [86t]
functional effect of the aptamer (printed 861): active

GGGAGCUCAGAAUAAACGCUCAAGCUCUGGGAUGAUGCCCACUGUCCAGCAUCUUCGACAUGAGGCCCGGAUCCGGC [87F]
functional effect of the aptamer (2'-F all C and U, variant of 87): active

GGGAGCUCAGAAUAAACGCUCAAGCUCUGGGAUGAUGCCCACUGUCCAGCAUCUUCGACAUGAGGCCCGGAUCCGGC [87]
functional effect of the aptamer: active

GGGAGCUCAGAAUAAACGCUCAAGCUCUGGGAUGAUGCCCACUGUCCAGCAUCUUCGACAUGUGUAGCUAAACAGCUUUAGGA [87.7]
functional effect of the aptamer (variant of 87): active
